Assay results taken from PMC4598761.
No constants are given. Whether binding was seen depends on the method and setting. Tags and fused reporters may be left off the sequences shown.

Target: GST alone
Assay: pull-down; purified recombinant proteins mixed overnight at 4 °C (1.5 mg/mL each), precipitated with 20 μL Glutathione-Sepharose 4B for 1 h at 4 °C (GST or GST-tagged protein held), washed three times with PBS, western blotting; both purified

binding: no binding
B1: His-GBA3-HA (recombinant epitope-tagged cytosolic β-glycosidase GBA3) (enzyme, UniProt Q9H227 1-469)
chain: MAFPAGFGWAAATAAYQVEGGWDADGKGPCVWDTFTHQGGERVFKNQTGDVACGSYTLWEEDLKCIKQLGLTHYRFSLSWSRLLPDGTTGFINQKGIDYYNKIIDDLLKNGVTPIVTLYHFDLPQTLEDQGGWLSEAIIESFDKYAQFCFSTFGDRVKQWITINEANVLSVMSYDLGMFPPGIPHFGTGGYQAAHNLIKAHARSWHSYDSLFRKKQKGMVSLSLFAVWLEPADPNSVSDQEAAKRAITFHLDLFAKPIFIDGDYPEVVKSQIASMSQKQGYPSSRLPEFTEEEKKMIKGTADFFAVQYYTTRLIKYQENKKGELGILQDAEIEFFPDPSWKNVDWIYVVPWGVCKLLKYIKDTYNNPVIYITENGFPQSDPAPLDDTQRWEYFRQTFQELFKAIQLDKVNLQVYCAWSLLDNFEWNQGYSSRFGLFHVDFEDPARPRVPYTSAKEYAKIIRNNGLEAHL
